In patent US20250326817A1 (LA JOLLA INSTITUTE FOR IMMUNOLOGY, published 2025):
No constants are given. Whether binding was seen depends on the method and setting. Some binding calls cover weakened binding; strength is not graded here.

The chains behind the UniProt entries cited, without tags or fusion partners. Residues count along the entry.
UniProt Q7TSA3, residues 30-183: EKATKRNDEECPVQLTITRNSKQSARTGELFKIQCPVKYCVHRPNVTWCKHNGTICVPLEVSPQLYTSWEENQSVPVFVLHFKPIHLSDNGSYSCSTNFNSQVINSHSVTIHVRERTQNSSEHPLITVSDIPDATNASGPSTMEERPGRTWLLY

Experiments:
[1] = molecular target: mouse BTLA, soluble protein (analyte of the Octet assay) (mouse) (UniProt Q7TSA3); assay: cell-protein flow cytometry (mHVEM-mCherry cells + mBTLA-His/anti-His green)
[2] = molecular target: mouse BTLA, soluble protein (analyte of the Octet assay) (mouse) (UniProt Q7TSA3); assay: protein staining flow cytometry (mHVEM-mCherry cells + mBTLA-His/anti-His green)
[3] = molecular target: mouse CD160 residues I30-H154 with C-terminal …, refolded from E. coli inclusion bodies (mouse) (UniProt O88875); assay: cell-protein flow cytometry (mHVEM-mCherry cells + mCD160-biotin/streptavidin-AF488)

B1: mouse HVEM, wild type, full length, fused to mCherry, on HEK293 FreeStyle cells (receptor)
chain: QPSCRQEEFLVGDECCPMCNPGYHVKQVCSEHTGTVCAPCPPQTYTAHANGLSKCLPCGVCDPDMGLLTWQECSSWKDTVCRCIPGYFCENQDGSHCSTCLQHTTCPPGQRVEKRGTHDQDTVCADCLTGTFSLGGTQEECLPWTNCSAFQQEVRRGTNSTDTTCSSQVVYYVVSILLPLVIVGAGIAGFLICTRRHLHTSSVAKELEPFQEQQENTIRFPVTEVGFAETEEETASN
notes: also called mHVEM; WT mHVEM; not shown: mCherry fused at the C-terminus (pmCherry-N1 vector)
binding [1]: binds | binding [2]: binds

B2: mouse HVEM A76D, full length, fused to mCherry, on cells (receptor)
chain: QPSCRQEEFLVGDECCPMCNPGYHVKQVCSEHTGTVCDPCPPQTYTAHANGLSKCLPCGVCDPDMGLLTWQECSSWKDTVCRCIPGYFCENQDGSHCSTCLQHTTCPPGQRVEKRGTHDQDTVCADCLTGTFSLGGTQEECLPWTNCSAFQQEVRRGTNSTDTTCSSQVVYYVVSILLPLVIVGAGIAGFLICTRRHLHTSSVAKELEPFQEQQENTIRFPVTEVGFAETEEETASN
notes: also called mHVEM A76D; not shown: mCherry fused at the C-terminus (pmCherry-N1 vector)
binding [1]: binds

B3: mouse HVEM H86D-L90A double mutein, full length, fused to mCherry, on cells (receptor)
chain: QPSCRQEEFLVGDECCPMCNPGYHVKQVCSEHTGTVCAPCPPQTYTADANGASKCLPCGVCDPDMGLLTWQECSSWKDTVCRCIPGYFCENQDGSHCSTCLQHTTCPPGQRVEKRGTHDQDTVCADCLTGTFSLGGTQEECLPWTNCSAFQQEVRRGTNSTDTTCSSQVVYYVVSILLPLVIVGAGIAGFLICTRRHLHTSSVAKELEPFQEQQENTIRFPVTEVGFAETEEETASN
notes: also called mHVEM H86D-L90A; mHVEM^-LIGHT; not shown: mCherry fused at the C-terminus (pmCherry-N1 vector)
binding [1]: binds | binding [2]: binds

B4: mouse HVEM R43D-M56A-K64D triple mutation, full length, fused to mCherry, on cells (receptor)
chain: QPSCDQEEFLVGDECCPACNPGYHVDQVCSEHTGTVCAPCPPQTYTAHANGLSKCLPCGVCDPDMGLLTWQECSSWKDTVCRCIPGYFCENQDGSHCSTCLQHTTCPPGQRVEKRGTHDQDTVCADCLTGTFSLGGTQEECLPWTNCSAFQQEVRRGTNSTDTTCSSQVVYYVVSILLPLVIVGAGIAGFLICTRRHLHTSSVAKELEPFQEQQENTIRFPVTEVGFAETEEETASN
notes: also called mHVEM R43D-M56A-K64D; not shown: mCherry fused at the C-terminus (pmCherry-N1 vector)
binding [3]: no binding
